# Data taken from PMC12370185.
# The other results are listed elsewhere or left out. For part of these data: At the low end of the ranking the order means little.
# Columns and labels:
# Details in all cases: 10 mM Tris-Cl pH 7.5, 50 mM NaCl, 1 mM DTT, 0.25 mg/ml BSA, 2 mM MgCl2, 0.025% Nonidet P-40, 5% glycerol; 28 nM nucleosome library; 10 min on ice then 30 min …; high values mean tight binding; double strand, one strand shown
# [1] = system: KLF4 + histone octamer; experiment: EMSA with sequencing
# [2] = system: SOX2 + histone octamer; experiment: EMSA with sequencing
# [3] = system: c-MYC + MAX + histone octamer; experiment: EMSA with sequencing
# [4] = system: OCT4 + histone octamer; experiment: Pioneer-seq (competitive nucleosome EMSA with sequencing)
# [5] = system: OCT4 + histone octamer; experiment: EMSA with sequencing
Sequence,binding signal (log2 relative supershift) [1],binding signal (log2 relative supershift) [2],binding signal (log2 relative supershift) [3],binding signal (log2 relative supershift) [4],binding signal (log2 relative supershift) [5]
GATGGACCCTATACGCGGCGAGCTTTCACCGCGGAGAGAACAACTTGAACAAAGAGGGAACTGTGGGCGTGGGGAAAGGGAGGTTGGGCGGGACAGGACCGCGCCGAAGTGCACGGTGCCTGCGGGATCAGGCCTCCCAGAGCCTGGGTGTCAGCTGAGGACTCCCATGATCTCTGCTGGCAGCCAGGAGCAGGCAGTTTGCCTGTTAGGTGCCAGTCGGATAGTGTTCC,1.55,1.43,0.28,-0.233,
GATGGACCCTATACGCGGCAAAATGCAGTCTGGCTTTGTTCATGAGGCTAAAGCATCTAAGCCAGTGTAGGGAAGCAATAGCAACAACAACAACAATCAATCAAACCAATTGCCTGGCATTCTATTGATATGGCAATCAGCTGATTGACTGAATGTTCTGCTCTTAACTTGTTGCCATAGTGCTACTACTACACCTGCTGAATGCTGCAATGCCAGTCGGATAGTGTTCC,0.886,0.978,0.648,-0.0187,
GATGGACCCTATACGCGGCGCATGCACTCACATGATTGAATGTGCACACACCCAGAGATGCACACACACACATCTAATCAGATGTGCACCCCCACACAGATATGCACATGTGCACACCCACAGGATCGAATGTGCACGCCTAATCAGATGTGTACACCCCTCCCACATATGTACACATGCACACTAACACAAATGTGTACACACCCGCAGTGCCAGTCGGATAGTGTTCC,2.24,0.275,0.837,-0.0394,
GATGGACCCTATACGCGGCCAGGGCGCACGCCCATTCCCCAAGATAGAGGGGTGGGAGCCACGTGCCTAAAAGATTAGGGACTGGTTCCCTTTCTCAAGACGCCGAAGGGGAGACAATGAGGGGAAGGTTGGGTGCTGAGACCCTGCTCTAGGTGACTGGAGTAACGATGTCAATTCCGCCACACTACTGTGCCAGATGTGGCTGGGGAATGCCAGTCGGATAGTGTTCC,2.36,0.0995,1.05,-0.336,
GATGGACCCTATACGCGGCGCTTGGTGCCTTCAGCAGGGGGTTCTGTGAAGGAGTAGCAGAGATGACAGCAGCAGAGACAGACAGACAGGGTGGGATGAAAATGTGGCAGGTGCAGAAAATGCAGCCGACTTTCTTTTGAGCAATGAGGAGCCATTGAAGAGTGTTGAAAAGCACATGGGGCAGGGCCTGTAGTAAGTGTTCGATAATTGTGCCAGTCGGATAGTGTTCC,2.41,0.405,0.885,-0.306,
GATGGACCCTATACGCGGCTGAGCCCGGACCTCACAAGAGACCATCTGCACTTCTGCTCTCTCTTGGGGCCCTGTCTCCGAAATGAGGACAAGCCTGGGCTGGCCTCCTGGAAAATGAGAGACCACGTGGAGCAGAACAGTCATTCCAGCTGAGTCAGCCCCCAACCAAGCCACCAGCTGATTTTAGAACTGCTCAACTGACAGTAGACTTGCCAGTCGGATAGTGTTCC,0.792,0.218,0.243,-0.331,
GATGGACCCTATACGCGGCGGGGGTGGGGTGGGGTGCCGTGCAGGGAGCCAAAGGCACTTAGATGGGCTTGCTGGGCCGAGGGTGGGTGGGCCAGTCACTGGGCTGGGGGTGGCTAAGGAACACAGACCCACCAGCCAGCCCTTCTTGGGAAGCTCTGGGGGGTTTCTGCTCAGACCTGCACTCCCCCGAGTGGAACCCCGAGTTCTGCCTGCCAGTCGGATAGTGTTCC,1.16,,0.0761,,1.19
GATGGACCCTATACGCGGCTCTGCTGGGCACTCTTTGTGGGATGCACACATGGGTGGGTGTGTCTGCACTGAGCCCTTAGACACACCTAAGCCCAGCCCCATTGTGAATAAGGATGAGCATGTGTGAGCCTAGCTGTCTTTCAGGAAAGAGTCAGAAATCAGTTAATGGATACAGTTAAGTGAACGAGACCCATGCGCCTTGGGATGGCCTGCCAGTCGGATAGTGTTCC,2.05,0.0167,0.799,-0.0197,
GATGGACCCTATACGCGGCTTGAGTAAACATCCCCAAAAGATCCCATTAAGATGTAAACATGAAAGAATGCTCAATACAGCTGTGGTCTCACCATTTGCCTTGTGTTGTACATCTGGCGGAAGCTGGTCAAGAGCATACCACTGATAGTCTGGCTGTGTGGAACAATACAACATTATTATAGCAATATGGACTTCAAATATAGTGGCATGTGCCAGTCGGATAGTGTTCC,0.166,1.13,0.888,-0.0614,
GATGGACCCTATACGCGGCGCTGCAGTTTAAGCCAAGATTGTGAATCCGAAGTCTTCTTTGACCACTGATTGTCGTGTAAAGCACAGCACACTGTAGAAGCAACATTGAGGTCACATGTTTTTCTGATTAACATATCCACCCAAGCTAACTTGATCTTACTTGCATTTACAAAACACTGTGTACAGATAGATAAAAGACCTCTAACTATTTGCCAGTCGGATAGTGTTCC,0.0732,1.46,0.0563,-0.0168,
GATGGACCCTATACGCGGCAGAGATTTACCAAATAATGTTGCCTGAAGGGAGGTCGTGGTGTGGACACAATTGGCCATCAGCTTTCCCTCCCAGCCTTTTGTCCCAACTCCTTCTCCTCCCTTTGTGTCTCCCTCTGTGTCTGCTTCTTGTATTGCCTCTGCATGACCATGCAGCCTTCTCCTTTCAAAGGTTGCTCTCAGAACATAATCTGCCAGTCGGATAGTGTTCC,1.73,0.675,0.27,-0.673,
GATGGACCCTATACGCGGCATTAGGTTTCAATGAGACCATAAGGGTGAGGCCTGCTATGGTCTGAATGTTTGTGTTCCCCCCAAATTCATATGCTGAAACCCAGTCACTAGTATGGTGACAGTAGGAGGTGGGGTCTTTGGGAGATGATTAGGTCATGAGAGCAGAGAGCTCATGAATAGGACTGGTGCCCTTATAAAAGAGGCCTCAGATGCCAGTCGGATAGTGTTCC,2.25,1.46,0.564,-0.555,
GATGGACCCTATACGCGGCCTGTCACTTTGTTGACGTTCCAGAGCCAGGCCTGGCTGCTGCGGCTCCCAGACCCGGTCCCAGGCATGTTGGGACACGGGCCGGCTGTGCTCTGTGGAATGTTCCCAGGCAGCAGGTCCACTTCCTGGGCTGCAGCCCTGGGTTCTGCTGATACCCCTTCTGTAGCAGACTTCTCCTGCCCTGTCCTCCAGTGCCAGTCGGATAGTGTTCC,0.846,0.017,0.281,-0.482,
GATGGACCCTATACGCGGCATTCTGAGACCCAGGCTGAAGAAGCAGTGGCCGCCTGGGGCATCCTTTTCTTATGGAGAGTAGCAGGAGTGCCAGACAGGAAGCGAAAAGACATAATGCCTCTGAGTCTCTCTTTGTGCTGGCATGCCACCATTGTGCCACACCCCATTCTTCAGTCAACGCACATCCTATGGCCCAGCCCAAGGTCAAGGTGCCAGTCGGATAGTGTTCC,2.26,0.908,0.373,-0.584,
GATGGACCCTATACGCGGCATGTGATAGTATTGGAATGCTATGATTGTTAATGTTGTGTCAACTTGAATGTGCCACAGGGTGCCCAGATTGAACATTATTTGGGGGTGTGTCTGTGAGGTTGTTCCCGATGAGATTAGCATTTGAATCAGTGGACTCAGAAAAGTTTCCCTCCCCATGTGAGTGGGCATCACCCAATCCATTGAAAGCCTTGCCAGTCGGATAGTGTTCC,1.76,1.5,0.641,-0.136,
GATGGACCCTATACGCGGCCTCTGTCAGCCAGGCTGCCCTCCCTGCATTAGCCCTGTATCCAGGCTTCACTGCACATGGAAGCCCAGCCCCAACCCGCTGCCACTCCAGGTCAGTGGCAGGCCCTGCCCGGGGGACTGGGAGGTGGAGTCTATCAAGAGAGAGCTGGGTTGGGAGATGGATGTGCTGGGGGTGGCCTTGAAGACTTTGAATGCCAGTCGGATAGTGTTCC,2.23,0.368,0.0958,-0.768,
GATGGACCCTATACGCGGCAGAAAGCATCCGGTAATGTCTGTCCCTTATCTGAACAGCCCTCTCTATACCTTGTCACTCACTGCTCCCCTGACTTGCTTGATGTGACTTGGTTCTCTGTGTCAATGATAGGCTCTTGTATGTGACTGGCAACACCCACATTCATATGAAAATCACTCCCTCTGCTATTTGAACTTTCATCCTGTGATGAATGCCAGTCGGATAGTGTTCC,1.41,0.822,0.00373,-0.279,
GATGGACCCTATACGCGGCAAGCCAGCTTTCTTTACCATTGTCATGTTGGCCTTGCCCTAGAAATCTGAATCACTGCATTATGATATGATAGGCTGAGCTTAGCTGTTTGTGCTGCAACGTGACCATCCCCTGCCAGCTATATTTTCAAGCTGTTTCAGGACCATGTCATTATTTTGCAAACAAACCAGCTGAATGGTTCAATGTTTCCCTGCCAGTCGGATAGTGTTCC,0.586,1.42,0.0448,-0.165,
GATGGACCCTATACGCGGCGGAAACAAGGCATTGAGACTGGTTCTAATCCACTGTCAGTTGGGTGAGGACTCAGAGCAAGCCATGACTTGCAGCTCAGACCTTCTGGCTCAATGCAGAGAGGCCCGAGTTGGAGGAACAGGGTACTAAGTGATGGGATGGAGGAATGAGGGCAGTGGGGAGCCTAGCGAGGCAGCTTGACAGGGAAAATATGCCAGTCGGATAGTGTTCC,1.8,0.112,0.12,-0.251,
GATGGACCCTATACGCGGCAACGTGAGGCAGGATGTTCATTTTCCTCTAGTAGCAGGTTCTGAGATAGTCTGTGTGTGATGTGCATGTGAATGAGTGGATGTGAGTGAGAATAGCAGGAGTGAGGGTAGGTTGCAGTTTTGATTACACGGGTGTAGACTGATTCTCTGAGGTCAGCTTTATGCACTGGGTTTTAACTTTGTGGAACCATATGCCAGTCGGATAGTGTTCC,0.893,0.331,0.749,-0.247,
GATGGACCCTATACGCGGCCTCCTGTTACATTCACCCTGTCCTTCTTATAATCCTTTTGGGCTTGTATCAACACGACGTGACCAAGTTCTCACTTGTTCTGGTTACTTCACGCATGCTTACACCAACCCCACAGAAAGCCAGCCCCTGTGGGCCACAGAGCCCAGCTCAGGCAGTGCAAGCTGTGGGCCCCCTGGGGCTCTCTGTCTTCTTGCCAGTCGGATAGTGTTCC,1.14,0.212,0.306,-0.387,
GATGGACCCTATACGCGGCGTGTCCCTCTAGGGTGTGGCATAGTCTAACTGTCCTGCCAGAAGGGTCCAGGGTGTGGCTGGGTCTGAGCTAGTGGAGAACTGTGTGCATGCGATCAGGTGTGGGGACACAGTGCGTGTGTCCATGCATGCTCTTGTCAGAGAGAGGGTGATGGAGAGAGGAAGGAAGATCGAGAAAAACACAAAGACGTGTGCCAGTCGGATAGTGTTCC,1.79,1.15,0.939,-0.697,

# A different layout for part of the listing above.
Sequence | binding signal (log2 relative supershift) [1] | binding signal (log2 relative supershift) [2] | binding signal (log2 relative supershift) [3] | binding signal (log2 relative supershift) [4] | binding signal (log2 relative supershift) [5]
GATGGACCCTATACGCGGCAAAATGCAGTCTGGCTTTGTTCATGAGGCTAAAGCATCTAAGCCAGTGTAGGGAAGCAATAGCAACAACAACAACAATCAATCAAACCAATTGCCTGGCATTCTATTGATATGGCAATCAGCTGATTGACTGAATGTTCTGCTCTTAACTTGTTGCCATAGTGCTACTACTACACCTGCTGAATGCTGCAATGCCAGTCGGATAGTGTTCC | 0.886 | 0.978 | 0.648 | -0.0187 | 
GATGGACCCTATACGCGGCGCTTGGTGCCTTCAGCAGGGGGTTCTGTGAAGGAGTAGCAGAGATGACAGCAGCAGAGACAGACAGACAGGGTGGGATGAAAATGTGGCAGGTGCAGAAAATGCAGCCGACTTTCTTTTGAGCAATGAGGAGCCATTGAAGAGTGTTGAAAAGCACATGGGGCAGGGCCTGTAGTAAGTGTTCGATAATTGTGCCAGTCGGATAGTGTTCC | 2.41 | 0.405 | 0.885 | -0.306 | 
GATGGACCCTATACGCGGCTGAGCCCGGACCTCACAAGAGACCATCTGCACTTCTGCTCTCTCTTGGGGCCCTGTCTCCGAAATGAGGACAAGCCTGGGCTGGCCTCCTGGAAAATGAGAGACCACGTGGAGCAGAACAGTCATTCCAGCTGAGTCAGCCCCCAACCAAGCCACCAGCTGATTTTAGAACTGCTCAACTGACAGTAGACTTGCCAGTCGGATAGTGTTCC | 0.792 | 0.218 | 0.243 | -0.331 | 
GATGGACCCTATACGCGGCCTCCTGTTACATTCACCCTGTCCTTCTTATAATCCTTTTGGGCTTGTATCAACACGACGTGACCAAGTTCTCACTTGTTCTGGTTACTTCACGCATGCTTACACCAACCCCACAGAAAGCCAGCCCCTGTGGGCCACAGAGCCCAGCTCAGGCAGTGCAAGCTGTGGGCCCCCTGGGGCTCTCTGTCTTCTTGCCAGTCGGATAGTGTTCC | 1.14 | 0.212 | 0.306 | -0.387 | 
